# PubChem BioAssay AID504467 (National Center for Advancing Translational Sciences (NCATS), 2011)
# About 7,700 (2.3%) of roughly 330,000 compounds were called active. This list was built around the results that the source calls inconclusive (neither active nor inactive); the mix of calls is not that of the screen. Calls follow the shape of the dose curve; as a rule, active = well fitted inhibition curve with a large enough effect; inconclusive = small, poorly fitted or top-dose-only effect, or effect the other way; inactive = flat fitted curve, though single readings scatter. Where the call is inconclusive, the potency comes from a doubtful curve fit.
# Experiment: qHTS screen for small molecules that inhibit ELG1-dependent DNA repair in human embryonic kidney (HEK293T) cells expressing luciferase-tagged ELG1; also: nearly all actives have a fitted effect of over 55% in size
# Conditions: HEK293T ELG1-luciferase reporter, luminescence, 16 h, DNA damage induced by 5-fluorouridine; activity change, negative = inhibition: at 46.1 µM (top of the series)
# Outline: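 In this reporter screen, reduction of luminescence relative to DMSO vehicle indicated activity. Compounds and 5-fluorouridine were added together to 2,000 cells per well, incubated for 16 hr at 37 °C, then developed with ONE-Glo.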
# % is scaled to controls: 0 for no effect and ±100 for the full control effect; potency is read from the fitted curve at half-maximal effect.
SMILES,Potency,"activity change, negative = inhibition"
Cc1c([N+](=O)[O-])c2ccc(O)cc2n1-c1ccccc1,active: 4.61 µM,–
CCC(C(=O)Nc1ccc(C(=O)O)cc1NC(=O)C(CC)c1ccccc1)c1ccccc1 (configuration not stated),–,inactive: 7.21%
CC1(C)CC(=O)C2=C(C1)NC1=C(C(=O)c3ccccc31)C2c1ccccc1 (configuration not stated),active: 25.9 µM,–
CCN(CC)c1cc(Cl)nc(N)n1,–,inactive: 0.805%
COc1ccccc1NC(=O)c1cccc(NC(=O)c2ccco2)c1,"inconclusive: 13 µM [inhibitor, partial curve, poor fit]",–
CC(C)Cn1c(N)c(C(=O)COC(=O)c2cnc(Cl)c(Cl)c2)c(=O)n(C)c1=O,–,inactive: -1.91%
Cc1ccc(S(=O)(=O)N2CCCC2)cc1C(=O)NCc1ccccc1CN1CCCC1,–,inactive: 0.748%
CC(Cc1ccccc1)NC(=O)c1cc2ccccc2o1 (configuration not stated),"inconclusive: 23.1 µM [activator, partial curve]",–
COc1ccc2ccccc2c1C1NC(=O)NC(C)=C1[N+](=O)[O-] (configuration not stated),–,inactive: -1.22%
O=C1CCCc2ccccc2N1Cc1cccc(F)c1,–,inactive: 27.5%
Cc1ccc(/C=C2/Sc3ccc(C(=O)NCCN4CCOCC4)cc3NC2=O)cc1,–,inactive: 18.1%
COc1cc(C(=O)Nc2ccc3c(c2)OCCO3)ccc1OC(C)C,"inconclusive: 3.16 µM [activator, partial curve, poor fit]",–
Cc1ccc(N=Nc2c(C)[nH]n(C(N)=S)c2=O)cc1C,"inconclusive: 18.4 µM [activator, partial curve]",–
Cc1csc(NC(=O)c2cc3c(s2)CCCCC3)n1,"inconclusive: 0.231 µM [activator, partial curve]",–
Cc1cccc(NC(=O)N2CCCc3ccccc32)c1C,"inconclusive: 16.4 µM [activator, partial curve, poor fit]",–
CSc1nsc(SCC(=O)Nc2ccc(C(C)=O)cc2)n1,"inconclusive: 9.2 µM [activator, partial curve]",–
CCN(CC(=O)Nc1ccc(OC)cc1)C(=O)c1ccc(Cl)c(S(=O)(=O)N2CCCC2)c1,–,inactive: -8.47%
CC(=O)Nc1ccc(OCc2cnc(Cl)s2)cc1,"inconclusive: 25.9 µM [activator, single point]",–
COc1ccc(S(=O)(=O)N(C)C)cc1NC(=O)Cc1c[nH]c2ccccc12,"inconclusive: 29.1 µM [inhibitor, single point]",–
COc1ccccc1CC(=O)Nc1ccc(S(=O)(=O)N2CCCCC2)cc1,"inconclusive: 20.6 µM [inhibitor, partial curve]",–
COc1cccc(CNc2ccc(F)c(Cl)c2)c1O,"inconclusive: 4.61 µM [inhibitor, partial curve, poor fit]",–
CCN(CC(=O)NCCc1ccc(S(N)(=O)=O)cc1)Cc1ccccc1,–,inactive: -4.77%
O=C(OCC(=O)N1CCc2ccccc2C1)c1ccc(O)cc1,"inconclusive: 3.66 µM [activator, single point]",–
CCN(C(=O)c1cc2cc3ccc(C)cc3nc2o1)c1ccc(OC)cc1,–,inactive: -18%

SMILES,Potency,"activity change, negative = inhibition"
Cc1cc(S(=O)(=O)N2CCN(C(=O)CCC(=O)N3CCOCC3)CC2)ccc1Br,–,inactive: -8.48%
COc1ccc(NC(=O)c2ccc3c(c2)OCO3)cc1[N+](=O)[O-],"inconclusive: 5.8 µM [activator, full curve]",–
O=C(Nc1ccc(N2CCCC2)cc1)c1cc2ccccc2o1,"inconclusive: 9.2 µM [activator, partial curve]",–
Cc1ccccc1OCC(=O)N/N=C/c1cccc(Oc2ccc([N+](=O)[O-])cc2[N+](=O)[O-])c1,"inconclusive: 9.2 µM [inhibitor, partial curve]",–
O=C(N/N=C/c1ccc2c(c1)OCO2)C(O)c1ccccc1 (configuration not stated),"inconclusive: 20.6 µM [activator, partial curve]",–
O=C(OCc1cnc(Cl)s1)c1ccc(Cl)cc1,"inconclusive: 29.1 µM [activator, single point]",–
C[C@H](NC(N)=O)C(=O)OCC(=O)Nc1ccc(OC(F)F)cc1,"inconclusive: 1.16 µM [inhibitor, single point]",–
COC(=O)C(CC(=O)c1ccc(Br)cc1)n1ccnc1 (configuration not stated),"inconclusive: 32.6 µM [inhibitor, single point]",–
O=C(O)CCC(=O)Nc1ccc(Oc2ncnc3cc(Cl)ccc23)nc1,"inconclusive: 23.1 µM [activator, partial curve, poor fit]",–
O=c1[nH]c2ccc(NC(=S)NCCc3ccccc3)cc2[nH]1,"inconclusive: 29.1 µM [inhibitor, single point]",–
NCCCCCC(=O)Nc1ccncc1,–,inactive: -4.01%
CCSC1=C(C#N)C(c2cccc(Br)c2)CC(=O)N1 (configuration not stated),"inconclusive: 16.4 µM [inhibitor, single point]",–
O=C(NC1CCCCC1)C(c1ccccn1)N(C(=O)Cc1cccs1)c1ccc(Cl)cc1 (configuration not stated),–,inactive: -2.17%
Fc1ccc(-c2nc3nc4ccccc4nc3n2Cc2ccco2)cc1,–,inactive: 3.71%
Cc1noc(C)c1COc1cccc(C(=O)N2CCN(C/C=C/c3ccccc3)CC2)c1,"inconclusive: 25.9 µM [inhibitor, partial curve, poor fit]",–
NC(=O)C(CC(=O)O)NC(=O)[C@@H]1CCCNc2c(I)cc([N+](=O)[O-])cc2C(=O)N[C@@H](CO)C(=O)N[C@@H](Cc2ccc(O)cc2)C(=O)N1 (some centres not stated),–,inactive: 0.704%
COc1ccc(NC(=O)/C=C/c2cc(OC)c(OC)c(OC)c2)cn1,–,inactive: 8.46%
Cc1ccc(C(=O)NCCCN2CCOCC2)c(Cl)c1,"inconclusive: 7.94 µM [activator, partial curve, poor fit]",–
CC(=O)c1c(CC(=O)O)[nH]n(-c2nc3ccccc3s2)c1=O,"inconclusive: 29.1 µM [activator, single point]",–
COc1ccccc1-n1ccnc1SCC(=O)NC1CCCC1,–,inactive: -9.36%
Cc1cc(C)nc(N(C#N)S(=O)(=O)c2ccccc2Cl)n1,–,inactive: 18%
CCNC(=S)N/N=C/c1sc(N2CCCCC2)nc1-c1cccs1,"inconclusive: 16.4 µM [activator, partial curve]",–
CCN(CCNC(=O)c1ccc2nc(-c3ccccc3NC(C)=O)c(=O)[nH]c2c1)c1ccccc1,"inconclusive: 20.6 µM [inhibitor, single point]",–

# A second format for part of the listing above:
SMILES	Potency	activity change, negative = inhibition
CSc1nsc(SCC(=O)Nc2ccc(C(C)=O)cc2)n1	inconclusive: 9.2 µM [activator, partial curve]	–
CCN(CC(=O)Nc1ccc(OC)cc1)C(=O)c1ccc(Cl)c(S(=O)(=O)N2CCCC2)c1	–	inactive: -8.47%
